These are raw signals, not scaled to a control.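 For antimicrobials the highest concentration approximated the MIC. Most other compounds topped out at 500 µM, and known inducer-like compounds reached up to 1 mM. Inocula for deletion strains were tenfold smaller, and any well growing below 10% of the overall median was considered non-growing.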
System: Escherichia coli BW25113
Test: growth (OD600 area under curve, 8 h) (OD600 x h); higher = more growth
Description: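 E. coli BW25113 reporter strains (wild type, ΔmarA, ΔsoxS, Δrob, each carrying one of 8 lux reporter plasmids) were grown in 40 µl LB in 384-well plates at 37°C, 800 rpm, with each compound at 4 two-fold concentrations, in biological duplicates. Growth is the baseline-corrected OD600 area under the curve over 8 h (0-8 h WT, 1-9 h deletion strains).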

Nc1ccn(C[C@@H](CO)OCP(=O)(O)O)c(=O)n1 [Cidofovir]
growth
Conditions	reporter plasmid: EVC	reporter plasmid: acrABp	reporter plasmid: marRABp	reporter plasmid: micFp	reporter plasmid: ompFp	reporter plasmid: robp	reporter plasmid: soxSp	reporter plasmid: tolCp
17.4 µg/ml, genetic background: wild type	2.96	3.04	3.26	3.12	3.24	3.31	3.102	3.18
17.4 µg/ml, genetic background: ΔmarA	3.11	4.27	3.85	3.15	3.45	3.69	2.78	2.98
17.4 µg/ml, genetic background: Δrob	2.45	3.01	3.45	2.97	2.67	2.64	2.87	3.02
17.4 µg/ml, genetic background: ΔsoxS	3.07	3.19	3.2	2.35	2.9	2.987	3.15	3
34.9 µg/ml, genetic background: wild type	2.95	2.68	3.1	3.12	2.97	3.32	3.12	3.094
34.9 µg/ml, genetic background: ΔmarA	3.04	4.21	4.04	3.33	3.49	3.69	2.79	2.96
34.9 µg/ml, genetic background: Δrob	2.89	3.13	3.18	3.13	2.62	2.73	2.99	3.1
34.9 µg/ml, genetic background: ΔsoxS	3.2	3.18	3.41	2.81	2.9	3.31	3.03	3.21
69.8 µg/ml, genetic background: wild type	2.63	2.95	3.44	3.12	3.34	3.34	3.12	3.185
69.8 µg/ml, genetic background: ΔmarA	3.25	4.22	4.08	3.26	3.58	3.91	2.83	3.05
69.8 µg/ml, genetic background: Δrob	2.65	3.01	3.42	2.9	2.68	2.72	2.9	3.02
69.8 µg/ml, genetic background: ΔsoxS	3.03	2.96	3.13	2.67	2.61	3.19	2.92	2.819
139.6 µg/ml, genetic background: wild type	2.72	2.78	3.11	3.02	2.97	3.1	2.93	2.98
139.6 µg/ml, genetic background: ΔmarA	3.14	4.03	3.73	3.29	3.5	4.01	2.84	2.93
139.6 µg/ml, genetic background: Δrob	2.82	2.86	3.18	2.91	2.51	2.55	2.77	3.06
139.6 µg/ml, genetic background: ΔsoxS	3.23	2.76	2.91	2.7	2.7	3.07	3.01	2.84

CO[C@@]12[C@H](COC(N)=O)C3=C(C(=O)C(C)=C(N)C3=O)N1C[C@@H]1N[C@@H]12 [Mitomycin C]
growth
Conditions	reporter plasmid: EVC	reporter plasmid: acrABp	reporter plasmid: marRABp	reporter plasmid: micFp	reporter plasmid: ompFp	reporter plasmid: robp	reporter plasmid: soxSp	reporter plasmid: tolCp
0.063 µg/ml, genetic background: wild type	2.84	2.92	3.24	3.05	2.79	3.09	2.88	3.11
0.063 µg/ml, genetic background: ΔmarA	3.44	3.9	3.76	3.09	3.37	3.67	2.95	2.95
0.063 µg/ml, genetic background: Δrob	2.76	2.72	3.06	3.33	2.49	2.48	2.95	3.15
0.063 µg/ml, genetic background: ΔsoxS	2.93	2.92	3.07	2.53	2.56	2.98	2.92	2.8
0.13 µg/ml, genetic background: wild type	2.7	2.89	3.06	2.87	2.81	2.88	2.62	2.93
0.13 µg/ml, genetic background: ΔmarA	3.25	3.8	3.29	3.06	2.83	2.83	2.91	2.95
0.13 µg/ml, genetic background: Δrob	2.79	3.02	2.89	3.004	2.4	2.55	2.88	2.89
0.13 µg/ml, genetic background: ΔsoxS	2.92	2.97	2.99	2.5	2.32	2.83	2.76	2.71
0.25 µg/ml, genetic background: wild type	2.73	2.8	3.28	2.97	2.95	2.85	2.78	3.13
0.25 µg/ml, genetic background: ΔmarA	3.36	4.13	3.97	3.03	3.49	3.89	3.02	2.95
0.25 µg/ml, genetic background: Δrob	2.77	3.03	3.22	3.22	2.58	2.69	2.89	2.99
0.25 µg/ml, genetic background: ΔsoxS	2.75	2.89	3.16	2.36	2.56	3.06	2.87	2.72
0.5 µg/ml, genetic background: wild type	2.61	2.42	2.9405	2.64	2.453	2.66	2.45	2.6
0.5 µg/ml, genetic background: ΔmarA	2.9	3.39	3.02	2.75	2.48	3.2	2.74	2.67
0.5 µg/ml, genetic background: Δrob	2.63	3.11	3.05	2.7	2.23	2.44	2.75	2.91
0.5 µg/ml, genetic background: ΔsoxS	2.44	2.83	3.04	2.07	2.41	3.17	2.45	2.56

CN(C)c1ccc(O)c2c1C[C@H]1C[C@H]3[C@H](N(C)C)C(O)=C(C(N)=O)C(=O)[C@@]3(O)C(O)=C1C2=O [Minocycline]
growth
Conditions	reporter plasmid: EVC	reporter plasmid: acrABp	reporter plasmid: marRABp	reporter plasmid: micFp	reporter plasmid: ompFp	reporter plasmid: robp	reporter plasmid: soxSp	reporter plasmid: tolCp
0.062 µg/ml, genetic background: wild type	3.34	3.4	3.36	3.18	3.18	3.34	3.15	3.22
0.062 µg/ml, genetic background: ΔmarA	3.67	4.33	3.83	3.52	3.74	4.14	3.47	3.41
0.062 µg/ml, genetic background: Δrob	3.24	3.074	3.52	3.34	2.82	2.94	3.16	3.4
0.062 µg/ml, genetic background: ΔsoxS	3.57	3.59	3.48	3.3	3.226	3.55	3.45	3.51
0.12 µg/ml, genetic background: wild type	3.05	3.23	3.12	3.18	3.25	3.3	3.163	3.278
0.12 µg/ml, genetic background: ΔmarA	3.47	4.43	3.95	3.58	3.75	4.16	3.31	3.4
0.12 µg/ml, genetic background: Δrob	2.99	2.95	3.54	3.28	2.87	2.8	2.94	3.27
0.12 µg/ml, genetic background: ΔsoxS	3.25	3.43	3.27	3.123	3.22	3.36	3.26	3.353
0.25 µg/ml, genetic background: wild type	3.23	3.31	3.51	3.02	3.14	3.4	3.17	3.18
0.25 µg/ml, genetic background: ΔmarA	3.78	4.27	4.04	3.58	3.77	4.34	3.55	3.5517
0.25 µg/ml, genetic background: Δrob	3.18	3.28	3.52	3.33	2.95	2.89	3.05	3.33
0.25 µg/ml, genetic background: ΔsoxS	3.49	3.52	3.47	3.24	3.469	3.67	3.5	3.46
0.49 µg/ml, genetic background: wild type	2.79	2.18	2.24	2.64	2.51	2.35	2.67	2.86
0.49 µg/ml, genetic background: ΔmarA	3.46	3.8	3.25	3.45	3.18	3.9	3.15	3.25
0.49 µg/ml, genetic background: Δrob	2.63	1.65	2.19	2.91	2.14	1.71	2.8	2.78
0.49 µg/ml, genetic background: ΔsoxS	3.168	2.52	2.84	2.68	2.77	2.8	3.18	3.19

CN(C)[C@@H]1C(O)=C(C(N)=O)C(=O)[C@@]2(O)C(O)=C3C(=O)c4c(O)cccc4[C@@](C)(O)[C@H]3C[C@@H]12 [Tetracycline]
growth
Conditions	reporter plasmid: EVC	reporter plasmid: acrABp	reporter plasmid: marRABp	reporter plasmid: micFp	reporter plasmid: ompFp	reporter plasmid: robp	reporter plasmid: soxSp	reporter plasmid: tolCp
0.056 µg/ml, genetic background: wild type	2.91	3.35	3.13	2.91	2.92	2.94	2.72	2.69
0.056 µg/ml, genetic background: ΔmarA	2.99	3.81	3.289	3.24	3.1	3.29	2.91	2.91
0.056 µg/ml, genetic background: Δrob	2.93	3.68	3.26	2.88	2.47	2.99	2.789	2.81
0.056 µg/ml, genetic background: ΔsoxS	3.15	3.66	3.44	2.86	3.02	3.443	3.27	3.16
0.11 µg/ml, genetic background: wild type	2.73	3.16	2.96	2.81	2.65	2.72	2.66	2.622
0.11 µg/ml, genetic background: ΔmarA	2.92	3.92	3.42	3.08	2.97	3.39	2.78	2.82
0.11 µg/ml, genetic background: Δrob	2.83	2.957	3.13	2.78	2.47	2.76	2.51	2.72
0.11 µg/ml, genetic background: ΔsoxS	3.115	3.28	2.85	2.76	2.89	3.27	2.95	3
0.22 µg/ml, genetic background: wild type	2.89	3.15	3.095	2.755	2.75	2.96	2.78	2.81
0.22 µg/ml, genetic background: ΔmarA	2.97	4.19	3.28	2.97	3.32	3.67	2.98	2.66
0.22 µg/ml, genetic background: Δrob	2.85	3.02	2.83	2.6	2.16	2.61	2.75	2.62
0.22 µg/ml, genetic background: ΔsoxS	3.23	3.35	3.21	2.79	2.98	3.25	2.954	3.13
0.44 µg/ml, genetic background: wild type	2.01	1.28	1.79	1.66	1.06	1.63	2.1	2.04
0.44 µg/ml, genetic background: ΔmarA	1.63	0.93	1.14	1.77	0.662	1.84	1.84	1.45
0.44 µg/ml, genetic background: Δrob	1.81	0.221	0.971	0.995	0.125	0.215	1.79	1.71
0.44 µg/ml, genetic background: ΔsoxS	2.14	0.477	0.446	1.43	0.247	0.428	1.11	2.28

O=C(O)c1cn(C2CC2)c2cc(N3CCNCC3)c(F)cc2c1=O [Ciprofloxacin]
growth
Conditions	reporter plasmid: EVC	reporter plasmid: acrABp	reporter plasmid: marRABp	reporter plasmid: micFp	reporter plasmid: ompFp	reporter plasmid: robp	reporter plasmid: soxSp	reporter plasmid: tolCp
0.0012 µg/ml, genetic background: wild type	3.11	3.17	3.41	3.13	3.318	3.58	3.03	3.197
0.0012 µg/ml, genetic background: ΔmarA	3.27	4.39	3.98	3.18	3.56	3.97	2.77	2.97
0.0012 µg/ml, genetic background: Δrob	2.53	3	3.63	3.05	2.61	2.71	2.69	3.08
0.0012 µg/ml, genetic background: ΔsoxS	3	3.09	3.13	2.58	2.92	3.07	3.05	2.93
0.0025 µg/ml, genetic background: wild type	2.87	3.09	3.23	3.09	3.29	3.36	2.99	3.1312
0.0025 µg/ml, genetic background: ΔmarA	3.1	4.39	4.08	3.09	3.45	3.85	2.72	2.91
0.0025 µg/ml, genetic background: Δrob	2.41	3.02	3.47	2.71	2.6	2.74	2.72	3.03
0.0025 µg/ml, genetic background: ΔsoxS	2.88	2.91	3.15	2.35	2.92	2.96	3.06	2.97
0.005 µg/ml, genetic background: wild type	2.66	3.26	3.5	2.97	3.365	3.5	2.85	2.89
0.005 µg/ml, genetic background: ΔmarA	3.16	4.12	3.87	3.09	3.51	3.92	2.85	2.76
0.005 µg/ml, genetic background: Δrob	2.79	2.99	3.344	2.38	2.09	2.72	2.57	2.83
0.005 µg/ml, genetic background: ΔsoxS	3.09	2.99	3.09	2.63	3.05	3.43	2.89	2.8
0.0099 µg/ml, genetic background: wild type	1.73	0.983	1.17	1.49	0.524	0.754	2.35	1.91
0.0099 µg/ml, genetic background: ΔmarA	1.41	0.151	0.189	0.974	-0.0835	0.819	2.08	1.04
0.0099 µg/ml, genetic background: Δrob	1.07	0.0801	-0.0159	0.364	-0.0872	0.0196	1.85	1.05
0.0099 µg/ml, genetic background: ΔsoxS	1.59	0.0322	0.188	0.457	-0.0161	-0.0122	0.529	1.46

Reference: the supplement of paper PMC12282887
